Taken from: PubChem BioAssay AID720505 (Drosophila RNAi Screening Center, 2013)
Purpose: 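Knock-downs that reduce calcium influx once internal stores are emptied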 (primary screen). System: Drosophila S2R+ cells. Knock-down reagent: long dsRNA against Drosophila genes. Conditions: thapsigargin (2 µM) in calcium-free buffer to empty internal stores, then 2 mM calcium added back. Detection: 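Stores emptied by 2 µM thapsigargin without calcium, then 2 mM calcium re-added; fluo-4 fluorescence followed by FLIPR in 384-well plates, per-well averaged endpoint, raw; two screen passes, some wells retested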. Scale: calcium signal: higher = more calcium entry after store depletion. Rule for the call: 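About 1500 genes called as lowering calcium entry, by varying amounts, judged against per-plate control wells with STIM1 as positive and Rho1 as negative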. Calls: active = called as lowering calcium entry; inactive = not called.
The screen tested about 20,000 reagents; this is an unselected part of those that have a named target and a result. In the full data, about 2,100 (10%) got an active call. 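Raw plate signals without normalisation; calls rest on control-based scores that were not deposited; replicate 2 separates called from uncalled poorly.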 A plus sign joins genes that one reagent is predicted to hit. Reagent sequences are not shown. Not stated in the record: the amount of reagent, the time to read-out.

With knock-down of Tudor-SN (GeneID 38045) [DRSC08581], the record shows calcium signal, replicate 1 = 112; calcium signal, replicate 2 = 117; inactive.
Against CG12204 (GeneID 32937) [DRSC19442], the entry reads calcium signal, replicate 1 = 127; calcium signal, replicate 2 = 114; inactive.
Against RpS25 (GeneID 41343) [DRSC16837], the entry reads calcium signal, replicate 1 = 87; calcium signal, replicate 2 = 106; inactive.
After knock-down of MICAL-like (GeneID 39475) [DRSC09829] the results were calcium signal, replicate 1 = 63.2; calcium signal, replicate 2 = 121; active.
Against Rnb (GeneID 43513) [DRSC16325], the values are calcium signal, replicate 1 = 146; calcium signal, replicate 2 = 191; inactive.
With knock-down of CG11703 (GeneID 42307) [DRSC14356], the record shows calcium signal, replicate 1 = 135; calcium signal, replicate 2 = 167; inactive.
After knock-down of fax (GeneID 39826) [DRSC11345] the results were calcium signal, replicate 1 = 115; calcium signal, replicate 2 = 94.1; inactive.
Silencing of CG6435 (GeneID 36894) [DRSC06987] gave: calcium signal, replicate 1 = 102; calcium signal, replicate 2 = 82.5; inactive.
CG40551 (retired record) (GeneID 5740872) [DRSC21229] showed calcium signal, replicate 1 = 170; calcium signal, replicate 2 = 117; inactive.
For casp (GeneID 36769) [DRSC07164], the values are calcium signal, replicate 1 = 140; calcium signal, replicate 2 = 104; inactive.
Against CG14933 + CG42486 [DRSC02415], the values are calcium signal, replicate 1 = 213; calcium signal, replicate 2 = 163; inactive.
Jon74E (GeneID 39959) [DRSC10617] gave calcium signal, replicate 1 = 109; calcium signal, replicate 2 = 192; inactive.
Nepl18 (GeneID 43410) [DRSC14879] gave calcium signal, replicate 1 = 158; calcium signal, replicate 2 = 133; inactive.
a5 (GeneID 33317) [DRSC00798] scored calcium signal, replicate 1 = 198; calcium signal, replicate 2 = 144; inactive.
With knock-down of CG4213 (GeneID 33209) [DRSC00641], the record shows calcium signal, replicate 1 = 159; calcium signal, replicate 2 = 130; inactive.
Silencing of C15 (GeneID 42544) [DRSC14169] gave: calcium signal, replicate 1 = 185; calcium signal, replicate 2 = 91.3; inactive.
After knock-down of CG4927 (GeneID 36852) [DRSC06903] the results were calcium signal, replicate 1 = 153; calcium signal, replicate 2 = 128; inactive.
With knock-down of FAM21 (GeneID 37331) [DRSC06623] the results were calcium signal, replicate 1 = 66.4; calcium signal, replicate 2 = 124; active.
Silencing of Srp9 (GeneID 38883) [DRSC10973] gave: calcium signal, replicate 1 = 67.1; calcium signal, replicate 2 = 47.4; active.
Silencing of yip7 (GeneID 38680) [DRSC11410] came out at: calcium signal, replicate 1 = 60.2; calcium signal, replicate 2 = 60.8; inactive.
Silencing of LBR (GeneID 37482) [DRSC04298] gave: calcium signal, replicate 1 = 82.5; calcium signal, replicate 2 = 105; inactive.
Knock-down of rhea (GeneID 38978) [DRSC11300] came out at: calcium signal, replicate 1 = 107; calcium signal, replicate 2 = 84.8; inactive.
CG42354 + CG42353 [DRSC20172] scored calcium signal, replicate 1 = 146; calcium signal, replicate 2 = 142; inactive.
Against NT1 (GeneID 38558) [DRSC08530], the values are calcium signal, replicate 1 = 65.7; calcium signal, replicate 2 = 66.5; inactive.
Silencing of NT1 (GeneID 38558) [DRSC22895] came out at: calcium signal, replicate 1 = 119; calcium signal, replicate 2 = 200; inactive.
For Bdp1 (GeneID 34748) [DRSC03192] the deposit lists calcium signal, replicate 1 = 86.6; calcium signal, replicate 2 = 150; inactive.
BomS5 (GeneID 50207) [DRSC22306] showed calcium signal, replicate 1 = 103; calcium signal, replicate 2 = 210; inactive.
Silencing of Zip42C.1 (GeneID 35579) [DRSC05003] came out at: calcium signal, replicate 1 = 142; calcium signal, replicate 2 = 162; inactive.
Depletion of MFS16 (GeneID 37427) [DRSC04051] resulted in: calcium signal, replicate 1 = 113; calcium signal, replicate 2 = 75.1; inactive.
Depletion of Usp7 (GeneID 32169) [DRSC19604] gave: calcium signal, replicate 1 = 101; calcium signal, replicate 2 = 107; inactive.
Knock-down of bsh (GeneID 35266) [DRSC03498] came out at: calcium signal, replicate 1 = 160; calcium signal, replicate 2 = 145; inactive.
Eo (GeneID 32423) [DRSC20187] showed calcium signal, replicate 1 = 72.9; calcium signal, replicate 2 = 152; active.
Ip6k (GeneID 37465) [DRSC04054] gave calcium signal, replicate 1 = 93.6; calcium signal, replicate 2 = 95.8; inactive.
For CG42262 (retired record) (GeneID 50410) [DRSC17974], the values are calcium signal, replicate 1 = 95.7; calcium signal, replicate 2 = 94.4; inactive.
Against CG2663 (GeneID 40649) [DRSC12314], the values are calcium signal, replicate 1 = 139; calcium signal, replicate 2 = 164; inactive.

Laid out differently: 2 of the entries above
gene,DRSC id,"calcium signal, replicate 1","calcium signal, replicate 2",Call
Bdp1 (GeneID 34748),DRSC03192,86.6,150,inactive
BomS5 (GeneID 50207),DRSC22306,103,210,inactive
